B1: Q01518 (protein, UniProt Q01518 1-475, looked up)
chain: MADMQNLVERLERAVGRLEAVSHTSDMHRGYADSPSKAGAAPYVQAFDSLLAGPVAEYLKISKEIGGDVQKHAEMVHTGLKLERALLVTASQCQQPAENKLSDLLAPISEQIKEVITFREKNRGSKLFNHLSAVSESIQALGWVAMAPKPGPYVKEMNDAAMFYTNRVLKEYKDVDKKHVDWVKAYLSIWTELQAYIKEFHTTGLAWSKTGPVAKELSGLPSGPSAGSCPPPPPPCPPPPPVSTISCSYESASRSSLFAQINQGESITHALKHVSDDMKTHKNPALKAQSGPVRSGPKPFSAPKPQTSPSPKRATKKEPAVLELEGKKWRVENQENVSNLVIEDTELKQVAYIYKCVNTTLQIKGKINSITVDNCKKLGLVFDDVVGIVEIINSKDVKVQVMGKVPTISINKTDGCHAYLSKNSLDCEIVSAKSSEMNVLIPTEGGDFNEFPVPEQFKTLWNGQKLVTTVTEIAG
modifications: full-length
B2: Q15293 (protein, UniProt Q15293 1-331, looked up)
chain: MARGGRGRRLGLALGLLLALVLAPRVLRAKPTVRKERVVRPDSELGERPPEDNQSFQYDHEAFLGKEDSKTFDQLTPDESKERLGKIVDRIDNDGDGFVTTEELKTWIKRVQKRYIFDNVAKVWKDYDRDKDDKISWEEYKQATYGYYLGNPAEFHDSSDHHTFKKMLPRDERRFKAADLNGDLTATREEFTAFLHPEEFEHMKEIVVLETLEDIDKNGDGFVDQDEYIADMFSHEENGPEPDWVLSEREQFNEFRDLNKDGKLDKDEIRHWILPQDYDHAQAEARHLVYESDKNKDEKLTKEEILENWNMFVGSQATNYGEDLTKNHDEL
modifications: full-length
B3: P52272 (protein, UniProt P52272 1-730, looked up)
chain: MAAGVEAAAEVAATEIKMEEESGAPGVPSGNGAPGPKGEGERPAQNEKRKEKNIKRGGNRFEPYANPTKRYRAFITNIPFDVKWQSLKDLVKEKVGEVTYVELLMDAEGKSRGCAVVEFKMEESMKKAAEVLNKHSLSGRPLKVKEDPDGEHARRAMQKVMATTGGMGMGPGGPGMITIPPSILNNPNIPNEIIHALQAGRLGSTVFVANLDYKVGWKKLKEVFSMAGVVVRADILEDKDGKSRGIGTVTFEQSIEAVQAISMFNGQLLFDRPMHVKMDERALPKGDFFPPERPQQLPHGLGGIGMGLGPGGQPIDANHLNKGIGMGNIGPAGMGMEGIGFGINKMGGMEGPFGGGMENMGRFGSGMNMGRINEILSNALKRGEIIAKQGGGGGGGSVPGIERMGPGIDRLGGAGMERMGAGLGHGMDRVGSEIERMGLVMDRMGSVERMGSGIERMGPLGLDHMASSIERMGQTMERIGSGVERMGAGMGFGLERMAAPIDRVGQTIERMGSGVERMGPAIERMGLSMERMVPAGMGAGLERMGPVMDRMATGLERMGANNLERMGLERMGANSLERMGLERMGANSLERMGPAMGPALGAGIERMGLAMGGGGGASFDRAIEMERGNFGGSFAGSFGGAGGHAPGVARKACQIFVRNLPFDFTWKMLKDKFNECGHVLYADIKMENGKSKGCGVVKFESPEVAERACRMMNGMKLSGREIDVRIDRNA
modifications: full-length
B4: P54920 (protein, UniProt P54920 1-295, looked up)
chain: MDNSGKEAEAMALLAEAERKVKNSQSFFSGLFGGSSKIEEACEIYARAANMFKMAKNWSAAGNAFCQAAQLHLQLQSKHDAATCFVDAGNAFKKADPQEAINCLMRAIEIYTDMGRFTIAAKHHISIAEIYETELVDIEKAIAHYEQSADYYKGEESNSSANKCLLKVAGYAALLEQYQKAIDIYEQVGTNAMDSPLLKYSAKDYFFKAALCHFCIDMLNAKLAVQKYEELFPAFSDSRECKLMKKLLEAHEEQNVDSYTESVKEYDSISRLDQWLTTMLLRIKKTIQGDEEDLR
modifications: full-length
B5: P18859 (protein, UniProt P18859 1-108, looked up)
chain: MILQRLFRFSSVIRSAVSVHLRRNIGVTAVAFNKELDPIQKLFVDKIREYKSKRQTSGGPVDASSEYQQELERELFKLKQMFGNADMNTFPTFKFEDPKFEVIEKPQA
modifications: full-length
B6: P62834 (protein, UniProt P62834 1-184, looked up)
chain: MREYKLVVLGSGGVGKSALTVQFVQGIFVEKYDPTIEDSYRKQVEVDCQQCMLEILDTAGTEQFTAMRDLYMKNGQGFALVYSITAQSTFNDLQDLREQILRVKDTEDVPMILVGNKCDLEDERVVGKEQGQNLARQWCNCAFLESSAKSKINVNEIFYDLVRQINRKTPVEKKKPKKKSCLLL
modifications: full-length
B7: Q9Y3B3 (protein, UniProt Q9Y3B3 1-224, looked up)
chain: MPRPGSAQRWAAVAGRWGCRLLALLLLVPGPGGASEITFELPDNAKQCFYEDIAQGTKCTLEFQVITGGHYDVDCRLEDPDGKVLYKEMKKQYDSFTFTASKNGTYKFCFSNEFSTFTHKTVYFDFQVGEDPPLFPSENRVSALTQMESACVSIHEALKSVIDYQTHFRLREAQGRSRAEDLNTRVAYWSVGEALILLVVSIGQVFLLKSFFSDKRTTTTRVGS
modifications: full-length

Experiment: Proteomics analysis (trypsin digest, LC-MS/MS) of hMSC ghosts and derived CDLs, conditioned or unconditioned by PC3 medium
Set-up: species or system human
Settings: LC-MS/MS peak area per protein; for Ratio of expression Cond. CDLs/Cond. Ghosts: CDLs derived from conditioned hMSCs versus conditioned ghosts; for Ratio of expression Cond Ghosts/Ghosts: hMSC ghosts conditioned by PC3 medium versus unconditioned ghosts

Row | Molecule | Ratio of expression Cond. CDLs/Cond. Ghosts | Ratio of expression Cond Ghosts/Ghosts
1 | B1 | 6% | 100%
2 | B2 | 6% | 100%
3 | B3 | 2% | 262%
4 | B4 | 6% | 100%
5 | B5 | 7% | 100%
6 | B6 | 6% | 100%
7 | B7 | 6% | 100%
